The text below walks through data of article PMC8921229.

Chains of the proteins cited; added tags and fusions are not shown.
UniProt P05198: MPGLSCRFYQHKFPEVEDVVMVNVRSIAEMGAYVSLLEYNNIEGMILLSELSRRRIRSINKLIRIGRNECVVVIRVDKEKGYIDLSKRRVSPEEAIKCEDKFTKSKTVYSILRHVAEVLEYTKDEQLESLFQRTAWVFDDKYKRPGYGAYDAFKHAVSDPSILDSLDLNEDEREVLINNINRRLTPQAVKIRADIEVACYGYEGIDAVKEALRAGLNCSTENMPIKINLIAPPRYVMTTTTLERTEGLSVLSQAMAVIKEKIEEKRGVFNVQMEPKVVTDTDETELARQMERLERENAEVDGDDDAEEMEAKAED

One experiment deals with T1, SFB-tagged GSDMD (human) (UniProt P57764).
T1 sequence: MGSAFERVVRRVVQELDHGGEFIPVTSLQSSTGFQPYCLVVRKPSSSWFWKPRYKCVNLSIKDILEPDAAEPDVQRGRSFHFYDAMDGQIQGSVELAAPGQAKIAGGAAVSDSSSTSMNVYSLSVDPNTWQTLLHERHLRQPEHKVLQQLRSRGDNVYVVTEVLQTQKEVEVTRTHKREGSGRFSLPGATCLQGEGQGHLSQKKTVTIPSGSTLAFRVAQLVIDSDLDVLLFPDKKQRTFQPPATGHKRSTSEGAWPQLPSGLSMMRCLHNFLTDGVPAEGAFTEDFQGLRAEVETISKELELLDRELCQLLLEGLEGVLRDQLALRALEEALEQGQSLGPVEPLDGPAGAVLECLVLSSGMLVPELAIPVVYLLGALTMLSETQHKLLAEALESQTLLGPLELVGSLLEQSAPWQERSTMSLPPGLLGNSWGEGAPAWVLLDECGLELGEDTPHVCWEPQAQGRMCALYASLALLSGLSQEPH
As to the kind of experiment: co-IP; cells lysed in NETN buffer with protein-phosphatase inhibitor; antibody with protein-G magnetic beads or S-protein agarose beads, overnight at 4 °C; beads washed 5 times with NETN; western blot. Background: Immunoblotting shows a protein as a band on a membrane.

Experiment [1] deals with eIF2α (human (endogenous in the human cell lines of the paper)) (UniProt P05198). The description is as above.

No constants are given. Whether binding was seen depends on the method and setting. In cells and extracts the contact can be indirect. Some entries that bind do so weakly or less than the wild type. For some assays here: Sequences can lack the tags named with a protein.

In the case of eIF2α (from UniProt P05198 1-315), in the experiment with SFB-tagged GSDMD (human), the binding entry was “binds”.

B1: GSDMD (protein, UniProt P57764 1-484)
chain: MGSAFERVVRRVVQELDHGGEFIPVTSLQSSTGFQPYCLVVRKPSSSWFWKPRYKCVNLSIKDILEPDAAEPDVQRGRSFHFYDAMDGQIQGSVELAAPGQAKIAGGAAVSDSSSTSMNVYSLSVDPNTWQTLLHERHLRQPEHKVLQQLRSRGDNVYVVTEVLQTQKEVEVTRTHKREGSGRFSLPGATCLQGEGQGHLSQKKTVTIPSGSTLAFRVAQLVIDSDLDVLLFPDKKQRTFQPPATGHKRSTSEGAWPQLPSGLSMMRCLHNFLTDGVPAEGAFTEDFQGLRAEVETISKELELLDRELCQLLLEGLEGVLRDQLALRALEEALEQGQSLGPVEPLDGPAGAVLECLVLSSGMLVPELAIPVVYLLGALTMLSETQHKLLAEALESQTLLGPLELVGSLLEQSAPWQERSTMSLPPGLLGNSWGEGAPAWVLLDECGLELGEDTPHVCWEPQAQGRMCALYASLALLSGLSQEPH
With B1, the binding entry in experiment [1] is “binds”.
